The results in this text go back to the supplement of paper PMC8007513.

Some of the results follow. Single values are uncertain, as repeats are few or missing.

For the test, the system named is Saccharomyces cerevisiae BY4743. Kind of test: growth (OD600) relative to untreated control; higher = less growth inhibition. The following applies: compound concentration: 133 uM; 20 h. The method, then:
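NMCCC compounds (133 uM, no IPBC) tested alone against Saccharomyces cerevisiae BY4743 in YPD, 96-well plates, starting OD600 ~0.1. Growth was read as OD600 at 20 h and expressed as % of the untreated control. Single pass.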
As to `CCOC(=O)c1sc(NC(=O)CSc2n[nH]c(CC(C)C)n2)nc1C`, the growth worked out at 76.9%.

In turn, `CCOC(=O)c1c(S(=O)(=O)Nc2ccc(C)cn2)c(C)n(C)c1C` returned a growth of 100%.

Take `CC1Cc2ccccc2N1C(=O)COC(=O)c1cc(S(=O)(=O)N(C)C)ccc1Cl` (centres undefined): the growth was 98%.

Regarding `CCOC(=O)Nc1ccc(C(=O)Nc2ccc(N3CCOCC3)nc2)cc1`, the growth turned out to be 98.6%.

On to `CCN(c1ccc(-c2csc(N3CCN(C)CC3)n2)cc1)S(C)(=O)=O`, for which the growth was determined as 105%.

On to `COC(=O)CC(NC(=O)c1cc(C(C)=O)c[nH]1)c1ccccc1Cl` (centres undefined), for which the growth was 85.5%.

On to `FC(F)(F)C/1=C/N(CC2=CC=CC(=C2)[S](=O)(=O)N3CCOCC3)C(=O)/C(=C1)Cl`, for which the growth was 107%.

For the compound `Cc1c(C)n(C(=O)CSc2nc[nH]n2)c2ccccc12`, the growth was found to be 95.8%.

For the compound `CC1=CC(=NO1)COC(=O)C/2=C/N3CC[S](=O)(=O)/N=C3/C=C2`, the growth stood at 95.1%.

The compound `CCOc1ccccc1NC(=O)CN1C(=O)CCSc2ccccc21` registered a growth of 108%.

For `CN(CC(=O)NC1=CC=CC=C1Cl)C(=O)CN2\N=C/C(=O)C3=CC=CC=C23`, the growth worked out at 102%.

The compound `CC(C)CCNC(=O)c1cc2n(n1)CC(C)(C(=O)NCc1ccc(F)cc1)N(C)C2=O` (centres undefined) registered a growth of 90.2%.

In turn, `CC1=CC=CC(=C1C)NC(=O)CNC(=O)CN2\N=C(\C(N)=O)C3=CC=CC=C3C2=O` returned a growth of 98.3%.

Compound `CCN(C(=O)Nc1cccc(C(C)=O)c1)c1nc(-c2ccc(C)cc2)cs1` gave a growth of 89.2%.

In the case of `COC(=O)c1sc(-n2cccc2)c(C(=O)OC)c1C`, the growth is 101%.

For `Cc1cc(S(=O)(=O)N(C)C)cc(NC(=O)c2c(-c3c(F)cccc3Cl)noc2C)c1C`, the growth is 108%.

As to `CC1=CC=C(C=C1C)/C2=C(C)/C(=N\[S]2(=O)=O)NC3=CC=C(Br)C(=C3)C`, the growth is 99.1%.

With `CCOC(=O)C(Cc1ccccc1)NS(=O)(=O)c1ccc(NC(C)=O)cc1` (centres undefined), the growth was found to be 103%.

As to `O=C(NCCc1cccs1)c1cc(O)nc2ccccc12`, the growth amounted to 99.8%.

Take `CCOC(=O)c1c(C)[nH]c(C)c1S(=O)(=O)NCC(=O)N1CCN(CC)CC1`: the growth came to 111%.

`CC\1(C)CC2=CC=CC=C2\C(=N1)CC(O)(C(F)(F)F)C(F)(F)F` came in with a growth of 100%.

As to `Cc1ccc(-c2cc(NC(=O)CNC(C)c3ccc(F)cc3F)on2)cc1` (centres undefined), the growth is 97.7%.

In the case of `CCOC(=O)N1CCN(C(=O)c2noc3c2CCCCC3)CC1`, the growth turned out to be 89.1%.

`CCOC(=O)\C1=C(/C)NC(=O)NC1C2=C(C)SC(=C2)C` (centres undefined) displayed a growth of 104%.

For `CCOc1ccc(N(C)S(=O)(=O)c2ccc3c(c2)NC(=O)CC(C)S3)cc1` (centres undefined), the growth was determined as 96.1%.

The compound `CCOC(=O)C(NC(=O)c1ccco1)(Nc1sc2c(c1C(=O)OC)CCCC2)C(F)(F)F` (centres undefined) showed a growth of 102%.

On to `CCCOc1ccc(CNC(=O)Cn2c(=O)oc3ccccc32)cc1`, for which the growth was 105%.

Turning to `CC(=O)c1c(C)[nH]c(C(=O)COC(=O)c2cccc(OC(F)F)c2)c1C`, the growth turned out to be 105%.

For `CCOc1ccccc1NC(=O)C(Sc1nc(N)cc(O)n1)c1ccccc1` (centres undefined), the growth worked out at 101%.

`O=C1NC(c2cc(Br)cs2)Oc2ccccc21` (centres undefined) came in with a growth of 92.3%.

`CCO/C(O)=C1\C(C)=NC2=C(C(=O)CC(C)(C)C2)C1c1cc(Cl)ccc1F` (centres undefined) came in with a growth of 103%.

`CC(Nc1cccc(C(N)=O)c1)C(=O)N1CCN(C(=O)c2ccco2)CC1` (centres undefined): the growth was 99.9%.

`CC(C(=O)[O-])n1c(Br)nc2c1c(=O)[nH]c(=O)n2C` (centres undefined) yielded a growth of 100%.

As to `CC1=CC=C(C=C1)C2(\N=C(Cl)/C(=C3/C=C\C=C/N23)C#N)C(F)(F)F` (centres undefined), the growth worked out at 103%.

`COc1cc(Br)c(OC)c(C(=O)NCc2c(C)nn(-c3ccccc3)c2C)c1`: the growth turned out to be 92.6%.

In turn, `CCOC(=O)c1c(-c2ccccc2)csc1NC(=O)CCSc1nnc(C)s1` returned a growth of 98.6%.

The compound `CC(C)CCNC(=O)c1cnn2c3c(cnc12)CCCC3` displayed a growth of 113%.

The compound `COc1cccc(N2CC(C(=O)NCc3ccccc3S(=O)(=O)N(C)C)CC2=O)c1` (centres undefined) yielded a growth of 106%.

As for `CCOC(=O)C/1=C(\C)OC(=O)/C(=C1)NC(=O)C2=CC=CC=C2OC`, the growth was determined as 87.6%.
